PubChem BioAssay AID1159578, Peter MacCallum Cancer Centre, 2015
The deposit covers about 18,000 reagents; this is a part drawn at random. About 1,030 of them (5.7%) were called active. 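Inactive calls also include pools with fewer than 3300 nuclei, whose migration was not assessed.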 The raw values are shown without normalisation. A number with no mark means an inactive call. Further read-outs or replicates are left out here.

- Assay: 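Knock-downs that alter how fast lymphatic endothelial cells migrate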 (primary screen)
- System: human lymphatic endothelial cells
- Knock-down reagent: siRNA pool against human genes, 40 nM
- Time to read-out: 48 h after transfection
- Measurement: 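High-content imaging of dye-stained cells in a scratch assay measures filled wound area and nuclei per well; duplicate means given as ratio to mock and robust z-score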
- Reading the numbers: migration robust z-score: higher = faster migration into the scratch; nuclei per well: higher = more cells in the well
- Call rule: 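Migration changed when robust z exceeds 2 or falls below -2 and mean nuclei number is at least 3300; otherwise not called changed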
- Calls: active = migration changed; inactive = no migration change, or too few cells

Target gene	PubChem SID	migration robust z-score	nuclei per well, duplicate mean
OR2L3	SID255365685	-0.62	5784
MCM6	SID255350906	0.21	5771
ANO7	SID255357349	1.32	6191
RRBP1	SID255352241	0.58	6612
NDUFAF1	SID255357478	-0.98	4852
CYP4A11	SID255349211	0.62	4898
VPS13C	SID255358198	-0.36	5870
NGDN	SID255356595	0.12	6092
GTF3C6	SID255362146	0.72	5940
OR4D2	SID255362618	-1.18	6318
LIMK1	SID255350763	-2.39 (active)	4238
FGF18	SID255353837	-0.68	4999
ADGRF4	SID255364291	1.2	4542
TMC2	SID255362429	-0.49	5779
CTAG1A	SID255364393	0.33	4863
SLC11A1	SID255352483	0.24	5582
COBL	SID255356098	0.18	4679
PGBD2	SID255364610	0.58	6152
GPRIN2	SID255354498	0.55	5111

6 consecutive reagents already listed, quoted:
Target gene	PubChem SID	migration robust z-score	nuclei per well, duplicate mean
OR2L3	SID255365685	-0.62	5784
MCM6	SID255350906	0.21	5771
ANO7	SID255357349	1.32	6191
RRBP1	SID255352241	0.58	6612
NDUFAF1	SID255357478	-0.98	4852
CYP4A11	SID255349211	0.62	4898

Additional records follow:
Target gene	PubChem SID	migration robust z-score	nuclei per well, duplicate mean
TRMT5	SID255359477	0.26	5696
PSMB2	SID255351884	0.1	5329
FAM187B	SID255363364	2.08 (active)	7802
PABPN1	SID255353394	0.2	5792
NABP1	SID255360036	-1.08	4922
NHSL2	SID255365090	-0.56	5752
NHSL2	SID255365707	-0.54	4542
KDM5A	SID255352059	0.18	6947
KLK3	SID255348359	-1.25	5274
COPZ2	SID255357571	-3.77	2200
SPATA31A7	SID255356701	-0.21	6038
IL17RD	SID255358148	-0.5	4726
AWAT2	SID255363680	-1.67	3002
SPMIP10	SID255365555	-0.98	5668
EPN3	SID255358370	-0.28	5315
CES1	SID255348875	0.34	5314
OR51F1	SID255364540	-0.11	6040
TAS2R43	SID255364583	-0.34	6128
VNN2	SID255353884	1.22	5832
ZDHHC8	SID255357179	0.3	6280
